{
  "source": "paper PMC6199744",
  "about": "“Development of Chemical Proteomics for the Folateome and Analysis of the Kinetoplastid Folateome” (ACS Infectious Diseases, 2018)",
  "tested_on": "L. major lysate proteins",
  "test": "Multitargeted bead mixture chemoproteomics, single concentration competition, proteome-wide",
  "assay_type": "binding",
  "conditions": "for fold change: vehicle control = 1",
  "note": "The source gives many values for each of these; only a part stands here.",
  "data": [
    {"smiles": "CCCCCCOc1cccc(Cc2cnc(N)nc2N)c1", "note": "[compound 2]", "values": [
      {"measurement": "fold change", "setting": "protein LMJF.28.2750 ACTIVATED PROTEIN KINASE C RECEPTOR (LACK)", "value": 1.09},
      {"measurement": "fold change", "setting": "protein LMJF.29.0120 PROTEASOME REGULATORY NON-ATPASE SUBUNIT, PUTATIVE", "value": 0.96},
      {"measurement": "fold change", "setting": "protein LMJF.29.0760 LIPOPHOSPHOGLYCAN BIOSYNTHETIC PROTEIN, PUTATIVE,HEAT SHOCK PROTEIN 90, PUTATIVE", "value": 0.85},
      {"measurement": "fold change", "setting": "protein LMJF.29.1240 HY[…], UNKNOWN FUNCTION", "value": 1.25},
      {"measurement": "fold change", "setting": "protein LMJF.29.1270 100 kDa heat shock protein (Hsp100)", "value": 1.02},
      {"measurement": "fold change vs vehicle control", "setting": "protein LMJF.30.0120 […] SYNTHASE", "value": 1.14},
      {"measurement": "fold change", "setting": "protein LMJF.30.0750 4-METHYL-5(BETA-HYDROXYETHYL)-THIAZOLE MONOPHOSPHATE SYNTHESIS PROTEIN, PUTATIVE", "value": 0.94},
      {"measurement": "fold change", "setting": "protein LMJF.30.1940 SUCCINYL-COA:3-KETOACID-COENZYME A TRANSFERASE- LIKE PROTEIN", "value": 1.09},
      {"measurement": "fold change", "setting": "protein LMJF.30.2330 HY[…], UNKNOWN FUNCTION", "value": 1.25},
      {"measurement": "fold change", "setting": "protein LMJF.30.2550 HEAT SHOCK 70-RELATED PROTEIN 1, MIT[…], PUTATIVE", "value": 1.15},
      {"measurement": "fold change", "setting": "protein LMJF.30.3090 HY[…], CONSERVED", "value": 1.17},
      {"measurement": "fold change", "setting": "protein LMJF.30.3130 VALYL-TRNA SYNTHETASE, PUTATIVE", "value": 0.96},
      {"measurement": "fold change", "setting": "protein LMJF.30.3430 HY[…], CONSERVED", "value": 1.03},
      {"measurement": "fold change vs vehicle control", "setting": "protein LMJF.30.3600 ATP SYNTHASE, EPSILON CHAIN, PUTATIVE", "value": 1.37},
      {"measurement": "fold change", "setting": "protein LMJF.30.3730 60S ACIDIC RIBOSOMAL PROTEIN P2, PUTATIVE", "value": 0.98},
      {"measurement": "fold change", "setting": "protein LMJF.32.0050 PROTEIN TRANSPORT PROTEIN SEC13, PUTATIVE", "value": 0.97},
      {"measurement": "fold change", "setting": "protein LMJF.32.0750 RNA BINDING PROTEIN, PUTATIVE", "value": 1.08},
      {"measurement": "fold change vs vehicle control", "setting": "protein LMJF.32.1060 DYNEIN, PUTATIVE", "value": 1.08},
      {"measurement": "fold change", "setting": "protein LMJF.32.2800 HYPOTHETICAL PROTEIN, CONSERVED", "value": 0.89},
      {"measurement": "fold change", "setting": "protein LMJF.32.3270 […] SUBUNIT, PUTATIVE", "value": 1.09},
      {"measurement": "fold change", "setting": "protein LMJF.32.3310 DIHYDROLIPOAMIDE DEHYDROGENASE, PUTATIVE", "value": 0.8},
      {"measurement": "fold change", "setting": "protein LMJF.32.3640 HY[…], CONSERVED", "value": 1.11},
      {"measurement": "fold change", "setting": "protein LMJF.33.0240 THIOL-DEPENDENT REDUCTASE 1", "value": 0.97},
      {"measurement": "fold change", "setting": "protein LMJF.33.0830 2,4-DIENOYL-COA REDUCTASE FADH1, PUTATIVE", "value": 1.08},
      {"measurement": "fold change", "setting": "protein LMJF.33.1590 HYPOTHETICAL PROTEIN, CONSERVED", "value": 1.23},
      {"measurement": "fold change", "setting": "protein LMJF.33.1750 MACROPHAGE MIGRATION INHIBITORY FACTOR-LIKE PROTEIN", "value": 0.97},
      {"measurement": "fold change", "setting": "protein LMJF.33.2060 HYPOTHETICAL PROTEIN, CONSERVED", "value": 1},
      {"measurement": "fold change", "setting": "protein LMJF.33.2270 HY[…], CONSERVED", "value": 1.21},
      {"measurement": "fold change", "setting": "protein LMJF.33.2340 SUCCINYL-COA:3-KETOACID-COENZYME A TRANSFERASE, MIT[…], PUTATIVE", "value": 1.13},
      {"measurement": "fold change", "setting": "protein LMJF.33.2540 CARBOXYPEPTIDASE, PUTATIVE,METALLO-PEPTIDASE, CLAN MA(E), FAMILY M32", "value": 1.08},
      {"measurement": "fold change", "setting": "protein LMJF.34.0140 MALATE DEHYDROGENASE", "value": 1.1},
      {"measurement": "fold change", "setting": "protein LMJF.34.0840 T[…] 1-BETA, PUTATIVE", "value": 1.15},
      {"measurement": "fold change", "setting": "protein LMJF.34.0930 HYPOTHETICAL PROTEIN, CONSERVED", "value": 1.1},
      {"measurement": "fold change", "setting": "protein LMJF.34.2340 ASPARAGINYL-TRNA SYNTHETASE, PUTATIVE", "value": 0.92},
      {"measurement": "fold change vs vehicle control", "setting": "protein LMJF.34.2580 HYPOTHETICAL PROTEIN, CONSERVED", "value": 1.3},
      {"measurement": "fold change", "setting": "protein LMJF.34.3250 PUTATIVE PYRUVATE/INDOLE-PYRUVATE CARBOXYLASE, PUTATIVE", "value": 1.2},
      {"measurement": "fold change", "setting": "protein LMJF.35.0070 PROHIBITIN, PUTATIVE", "value": 1.05},
      {"measurement": "fold change", "setting": "protein LMJF.35.0240 60S RIBOSOMAL PROTEIN L30", "value": 1.04},
      {"measurement": "fold change", "setting": "protein LMJF.35.0360 ENOYL-COA HYDRATASE/ISOMERASE FAMILY PROTEIN, CONSERVED", "value": 1.19},
      {"measurement": "fold change", "setting": "protein LMJF.35.0820 ASPARTATE AMINOTRANSFERASE, PUTATIVE", "value": 1.07},
      {"measurement": "fold change", "setting": "protein LMJF.35.1220 SHORT CHAIN DEHYDROGENASE, PUTATIVE", "value": 1.32},
      {"measurement": "fold change", "setting": "protein LMJF.35.1230 SHORT CHAIN DEHYDROGENASE, PUTATIVE", "value": 1.19},
      {"measurement": "fold change", "setting": "protein LMJF.35.3080 GLYCEROL KINASE, GLYCOSOMAL, PUTATIVE", "value": 1.09},
      {"measurement": "fold change", "setting": "protein LMJF.35.3230 C[…] LYASE, PUTATIVE", "value": 1.21},
      {"measurement": "fold change", "setting": "protein LMJF.35.4420 MIT[…] TRANSPORTER, PUTATIVE", "value": 1.17},
      {"measurement": "fold change", "setting": "protein LMJF.36.0070 STRESS-INDUCIBLE PROTEIN STI1 HOMOLOG", "value": 1.13},
      {"measurement": "fold change", "setting": "protein LMJF.36.0210 SET DOMAIN PROTEIN, PUTATIVE", "value": 0.94},
      {"measurement": "fold change", "setting": "protein LMJF.36.0320 […] 2 SUBUNIT, PUTATIVE", "value": 1.07},
      {"measurement": "fold change", "setting": "protein LMJF.36.0930 40S RIBOSOMAL PROTEIN S18, PUTATIVE", "value": 1.27},
      {"measurement": "fold change", "setting": "protein LMJF.36.1260 FRUCTOSE-1,6-BI[…]", "value": 1.2},
      {"measurement": "fold change", "setting": "protein LMJF.36.1430 T[…] 1-BETA, PUTATIVE", "value": 1.42},
      {"measurement": "fold change", "setting": "protein LMJF.36.1600 PROTEASOME ALPHA 1 SUBUNIT, PUTATIVE", "value": 1},
      {"measurement": "fold change", "setting": "protein LMJF.36.1650 […] 5 SUBUNIT, PUTATIVE", "value": 1.06},
      {"measurement": "fold change", "setting": "protein LMJF.36.2030 CHAPERONIN HSP60, MIT[…]", "value": 1.18},
      {"measurement": "fold change", "setting": "protein LMJF.36.2160 HYPOTHETICAL PROTEIN, CONSERVED", "value": 1},
      {"measurement": "fold change", "setting": "protein LMJF.36.2660 DIHYDROLIPOAMIDE ACETYLTRANSFERASE PRECURSOR, PUTATIVE", "value": 0.85},
      {"measurement": "fold change", "setting": "protein LMJF.36.2750 ACETYLTRANSFERASE-LIKE PROTEIN", "value": 1.08},
      {"measurement": "fold change", "setting": "protein LMJF.36.2950 SUCCINYL-COA LIGASE GDP-FORMING] BETA-CHAIN, PUTATIVE", "value": 1.13},
      {"measurement": "fold change", "setting": "protein LMJF.36.3210 14-3-3 PROTEIN-LIKE PROTEIN", "value": 1.22},
      {"measurement": "fold change", "setting": "protein LMJF.36.3410 SHORT CHAIN DEHYDROGENASE-LIKE PROTEIN", "value": 1.03},
      {"measurement": "fold change", "setting": "protein LMJF.36.3530 POLYUBIQUITIN, PUTATIVE", "value": 1.27},
      {"measurement": "fold change", "setting": "protein LMJF.36.4420 60S RIBOSOMAL PROTEIN L22, PUTATIVE", "value": 1.15},
      {"measurement": "fold change", "setting": "protein LMJF.36.4460 HY[…], CONSERVED", "value": 1.13},
      {"measurement": "fold change", "setting": "protein LMJF.36.6540 […] ENDO-1-LIKE PROTEIN", "value": 1.11}
    ]}
  ]
}
